From the supplement of paper PMC10849652
Some of the results follow.

Sequences of proteins named here, by UniProt entry; tags and fusion partners are left off. A change or cut given only in a name is not applied to a line headed by its entry.
UniProt Q9BYV8: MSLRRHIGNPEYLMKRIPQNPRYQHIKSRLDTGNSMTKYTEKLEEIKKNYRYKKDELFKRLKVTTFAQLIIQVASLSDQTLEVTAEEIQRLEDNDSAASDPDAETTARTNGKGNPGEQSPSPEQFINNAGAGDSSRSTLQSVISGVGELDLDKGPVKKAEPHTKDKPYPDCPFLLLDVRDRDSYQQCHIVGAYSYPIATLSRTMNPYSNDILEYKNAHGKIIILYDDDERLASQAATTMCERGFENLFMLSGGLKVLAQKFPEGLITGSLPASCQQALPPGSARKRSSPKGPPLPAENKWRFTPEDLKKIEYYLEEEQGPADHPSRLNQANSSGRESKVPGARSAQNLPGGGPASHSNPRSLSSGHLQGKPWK
UniProt P30307: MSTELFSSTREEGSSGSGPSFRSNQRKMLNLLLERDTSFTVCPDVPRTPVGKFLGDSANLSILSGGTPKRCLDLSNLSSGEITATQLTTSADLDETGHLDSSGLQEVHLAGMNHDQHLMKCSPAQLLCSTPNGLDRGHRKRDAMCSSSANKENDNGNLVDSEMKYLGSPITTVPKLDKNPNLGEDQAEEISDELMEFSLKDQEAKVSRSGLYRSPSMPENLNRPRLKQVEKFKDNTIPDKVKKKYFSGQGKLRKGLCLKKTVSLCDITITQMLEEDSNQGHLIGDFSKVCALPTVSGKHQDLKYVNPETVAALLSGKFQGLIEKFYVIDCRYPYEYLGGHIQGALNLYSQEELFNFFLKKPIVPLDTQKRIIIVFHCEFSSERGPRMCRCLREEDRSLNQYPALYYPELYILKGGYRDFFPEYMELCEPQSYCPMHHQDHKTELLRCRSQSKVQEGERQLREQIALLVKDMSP
UniProt Q53EZ4: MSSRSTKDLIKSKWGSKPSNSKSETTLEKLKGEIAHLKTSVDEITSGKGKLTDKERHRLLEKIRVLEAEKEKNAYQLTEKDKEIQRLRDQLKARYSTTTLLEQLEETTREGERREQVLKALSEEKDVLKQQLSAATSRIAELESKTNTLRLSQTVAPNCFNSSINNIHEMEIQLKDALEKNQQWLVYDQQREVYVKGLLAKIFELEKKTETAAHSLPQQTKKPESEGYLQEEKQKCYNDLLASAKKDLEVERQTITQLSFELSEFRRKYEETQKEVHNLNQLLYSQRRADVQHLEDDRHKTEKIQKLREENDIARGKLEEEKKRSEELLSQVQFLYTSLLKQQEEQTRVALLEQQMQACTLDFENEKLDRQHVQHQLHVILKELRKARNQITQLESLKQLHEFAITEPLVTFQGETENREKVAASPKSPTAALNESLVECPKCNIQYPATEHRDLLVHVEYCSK
UniProt Q9Y5P4: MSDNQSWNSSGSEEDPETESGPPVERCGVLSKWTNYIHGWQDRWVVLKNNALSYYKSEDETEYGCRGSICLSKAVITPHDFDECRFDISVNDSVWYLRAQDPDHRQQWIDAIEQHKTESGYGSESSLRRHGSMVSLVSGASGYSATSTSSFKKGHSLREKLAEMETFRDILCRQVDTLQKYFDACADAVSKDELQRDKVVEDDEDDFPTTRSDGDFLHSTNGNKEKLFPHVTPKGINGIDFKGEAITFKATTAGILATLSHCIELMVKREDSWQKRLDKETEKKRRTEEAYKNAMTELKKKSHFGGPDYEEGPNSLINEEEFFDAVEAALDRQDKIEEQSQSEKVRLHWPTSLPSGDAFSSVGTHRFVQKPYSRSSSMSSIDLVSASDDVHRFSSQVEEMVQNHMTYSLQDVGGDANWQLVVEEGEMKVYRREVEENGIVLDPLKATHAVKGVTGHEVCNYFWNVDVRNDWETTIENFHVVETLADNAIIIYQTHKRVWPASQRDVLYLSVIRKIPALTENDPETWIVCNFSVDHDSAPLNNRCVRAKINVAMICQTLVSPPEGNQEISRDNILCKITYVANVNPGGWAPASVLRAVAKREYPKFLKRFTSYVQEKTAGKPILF
UniProt Q00536: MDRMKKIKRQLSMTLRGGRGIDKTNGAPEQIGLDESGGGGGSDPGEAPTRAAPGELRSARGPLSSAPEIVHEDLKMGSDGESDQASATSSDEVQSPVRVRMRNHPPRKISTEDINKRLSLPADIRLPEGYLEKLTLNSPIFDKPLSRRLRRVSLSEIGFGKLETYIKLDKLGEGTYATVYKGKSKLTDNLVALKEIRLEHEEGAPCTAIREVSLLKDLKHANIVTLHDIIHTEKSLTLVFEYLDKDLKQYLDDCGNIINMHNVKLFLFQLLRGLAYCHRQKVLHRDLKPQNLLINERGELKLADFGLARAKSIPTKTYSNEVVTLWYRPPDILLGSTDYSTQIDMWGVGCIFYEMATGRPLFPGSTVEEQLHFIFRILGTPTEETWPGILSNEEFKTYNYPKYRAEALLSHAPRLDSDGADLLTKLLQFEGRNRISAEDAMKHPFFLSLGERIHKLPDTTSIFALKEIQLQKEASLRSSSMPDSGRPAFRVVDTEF
UniProt Q9Y232: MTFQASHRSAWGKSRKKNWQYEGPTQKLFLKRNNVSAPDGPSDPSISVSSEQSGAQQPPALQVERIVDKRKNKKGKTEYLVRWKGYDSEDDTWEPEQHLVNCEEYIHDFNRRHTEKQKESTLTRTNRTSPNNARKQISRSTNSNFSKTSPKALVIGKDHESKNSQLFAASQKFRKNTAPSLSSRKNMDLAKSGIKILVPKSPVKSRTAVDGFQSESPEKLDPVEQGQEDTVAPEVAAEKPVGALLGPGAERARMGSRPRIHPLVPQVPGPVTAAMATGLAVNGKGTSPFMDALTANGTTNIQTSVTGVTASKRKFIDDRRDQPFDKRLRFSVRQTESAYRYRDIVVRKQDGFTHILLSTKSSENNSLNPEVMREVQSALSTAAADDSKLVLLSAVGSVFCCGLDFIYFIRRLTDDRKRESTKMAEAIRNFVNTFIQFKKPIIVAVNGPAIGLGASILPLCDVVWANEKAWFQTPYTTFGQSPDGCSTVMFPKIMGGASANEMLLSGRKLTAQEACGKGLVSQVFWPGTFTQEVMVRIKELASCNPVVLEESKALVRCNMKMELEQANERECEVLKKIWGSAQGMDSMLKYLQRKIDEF
UniProt Q9UKY7: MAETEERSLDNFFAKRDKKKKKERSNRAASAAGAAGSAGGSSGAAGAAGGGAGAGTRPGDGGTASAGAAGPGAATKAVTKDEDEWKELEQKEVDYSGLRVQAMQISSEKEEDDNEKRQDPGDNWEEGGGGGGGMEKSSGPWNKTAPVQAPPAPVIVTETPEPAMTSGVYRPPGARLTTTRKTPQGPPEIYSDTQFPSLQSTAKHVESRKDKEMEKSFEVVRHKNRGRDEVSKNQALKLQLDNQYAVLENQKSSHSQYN
UniProt Q9NYV4, whole entry, looked up: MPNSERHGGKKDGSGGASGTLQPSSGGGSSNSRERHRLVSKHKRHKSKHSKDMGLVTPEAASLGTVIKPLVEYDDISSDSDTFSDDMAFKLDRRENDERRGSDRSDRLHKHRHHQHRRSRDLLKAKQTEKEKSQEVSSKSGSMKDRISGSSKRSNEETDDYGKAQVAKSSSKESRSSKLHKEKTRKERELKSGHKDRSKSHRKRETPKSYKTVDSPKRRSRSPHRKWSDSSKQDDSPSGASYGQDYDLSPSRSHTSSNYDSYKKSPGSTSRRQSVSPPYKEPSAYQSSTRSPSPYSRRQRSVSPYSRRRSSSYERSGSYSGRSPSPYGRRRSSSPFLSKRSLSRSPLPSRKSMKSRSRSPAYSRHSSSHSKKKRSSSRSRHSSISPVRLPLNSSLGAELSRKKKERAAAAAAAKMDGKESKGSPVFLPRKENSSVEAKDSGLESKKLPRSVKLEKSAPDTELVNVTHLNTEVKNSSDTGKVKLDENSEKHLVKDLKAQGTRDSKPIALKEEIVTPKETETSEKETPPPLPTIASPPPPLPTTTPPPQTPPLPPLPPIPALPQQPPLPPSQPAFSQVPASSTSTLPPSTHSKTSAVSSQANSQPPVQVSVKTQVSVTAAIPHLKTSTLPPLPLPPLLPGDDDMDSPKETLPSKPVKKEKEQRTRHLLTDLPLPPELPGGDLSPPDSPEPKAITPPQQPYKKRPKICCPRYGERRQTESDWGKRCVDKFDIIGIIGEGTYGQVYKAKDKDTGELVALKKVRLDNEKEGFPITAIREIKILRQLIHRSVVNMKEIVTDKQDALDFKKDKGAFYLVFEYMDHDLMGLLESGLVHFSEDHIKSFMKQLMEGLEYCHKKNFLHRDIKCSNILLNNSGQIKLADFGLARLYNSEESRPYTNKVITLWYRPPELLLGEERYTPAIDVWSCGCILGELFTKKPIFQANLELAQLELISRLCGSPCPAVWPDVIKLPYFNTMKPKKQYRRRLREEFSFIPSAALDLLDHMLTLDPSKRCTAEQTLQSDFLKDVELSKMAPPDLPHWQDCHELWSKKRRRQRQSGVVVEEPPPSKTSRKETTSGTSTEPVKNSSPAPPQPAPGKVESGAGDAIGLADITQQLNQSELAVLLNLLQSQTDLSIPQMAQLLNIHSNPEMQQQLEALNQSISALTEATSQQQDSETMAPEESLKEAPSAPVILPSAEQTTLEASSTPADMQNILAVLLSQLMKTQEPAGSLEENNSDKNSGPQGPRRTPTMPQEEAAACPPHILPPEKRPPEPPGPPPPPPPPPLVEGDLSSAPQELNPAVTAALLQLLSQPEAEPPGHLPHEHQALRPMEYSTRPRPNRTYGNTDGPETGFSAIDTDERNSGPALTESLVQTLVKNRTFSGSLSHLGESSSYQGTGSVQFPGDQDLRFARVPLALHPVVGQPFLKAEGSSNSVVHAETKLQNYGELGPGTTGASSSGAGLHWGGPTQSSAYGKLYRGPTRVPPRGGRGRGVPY
UniProt O75419: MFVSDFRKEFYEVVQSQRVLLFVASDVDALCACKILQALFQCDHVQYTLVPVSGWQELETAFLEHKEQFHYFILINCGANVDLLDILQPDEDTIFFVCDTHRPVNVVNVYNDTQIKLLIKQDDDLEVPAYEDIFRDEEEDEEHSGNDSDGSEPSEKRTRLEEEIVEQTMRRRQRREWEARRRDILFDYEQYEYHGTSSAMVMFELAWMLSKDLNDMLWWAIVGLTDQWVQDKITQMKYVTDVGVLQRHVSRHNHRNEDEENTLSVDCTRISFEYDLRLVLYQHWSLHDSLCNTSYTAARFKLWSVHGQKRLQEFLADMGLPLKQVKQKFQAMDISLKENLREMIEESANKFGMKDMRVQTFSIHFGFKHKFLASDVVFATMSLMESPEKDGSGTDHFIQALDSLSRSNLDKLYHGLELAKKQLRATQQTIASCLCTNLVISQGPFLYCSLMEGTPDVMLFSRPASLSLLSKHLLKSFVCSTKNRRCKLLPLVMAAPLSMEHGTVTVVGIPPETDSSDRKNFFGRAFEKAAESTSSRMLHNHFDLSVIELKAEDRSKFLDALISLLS
UniProt Q9Y6A4: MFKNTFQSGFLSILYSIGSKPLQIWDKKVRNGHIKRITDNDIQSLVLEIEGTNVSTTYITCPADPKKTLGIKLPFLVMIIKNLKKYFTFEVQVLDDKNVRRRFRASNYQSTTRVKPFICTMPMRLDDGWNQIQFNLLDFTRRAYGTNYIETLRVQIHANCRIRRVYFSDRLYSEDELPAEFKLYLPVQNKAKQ
UniProt O75794: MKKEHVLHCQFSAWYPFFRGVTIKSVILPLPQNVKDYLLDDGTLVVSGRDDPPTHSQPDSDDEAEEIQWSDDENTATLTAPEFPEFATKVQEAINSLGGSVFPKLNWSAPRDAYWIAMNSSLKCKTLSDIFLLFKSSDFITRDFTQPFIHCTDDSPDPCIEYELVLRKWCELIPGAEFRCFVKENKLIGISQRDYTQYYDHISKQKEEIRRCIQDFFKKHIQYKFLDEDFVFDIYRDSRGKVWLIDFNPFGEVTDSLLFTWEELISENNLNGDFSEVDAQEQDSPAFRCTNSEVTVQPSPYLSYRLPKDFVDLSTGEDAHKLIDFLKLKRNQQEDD
UniProt P46527, whole entry, looked up: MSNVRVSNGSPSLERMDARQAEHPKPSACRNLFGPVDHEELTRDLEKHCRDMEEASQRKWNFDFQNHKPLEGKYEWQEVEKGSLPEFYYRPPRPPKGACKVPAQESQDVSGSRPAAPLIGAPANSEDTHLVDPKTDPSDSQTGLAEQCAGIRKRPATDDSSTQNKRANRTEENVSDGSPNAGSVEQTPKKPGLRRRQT

Key:
Experiment in all cases: log2 fold change, soluble protein after heating vs DMSO (PISA); higher = thermal stabilisation; K562 lysate, 10 uM; active = over 0.2 and 3.5 SD of the protein, either way, in both replicates (recomputed)
vemurafenib = compound: CCCS(=O)(=O)Nc1ccc(F)c(C(=O)c2c[nH]c3ncc(-c4ccc(Cl)cc4)cc23)c1F [vemurafenib]
Method in brief: (§1)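 K562 pellets were dounce-homogenised in PBS pH 7.4 with 1 mM MgCl2, and the crude extract at 1 mg/mL protein was treated with 10 μM compound for 30 min. Aliquots were heated for 3 min across 48°C-58°C, pooled, and brought to 0.5% NP-40 at 4°C; soluble protein was the supernatant after 21,000xg for 90 min. Soluble protein was quantified by TMTpro 16plex LC-MS/MS with channel sums equalised, and reported as log2 fold change in thermal stability against DMSO controls, with values from duplicates.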

[1] = compound: CCCS(=O)(=O)Nc1ccc(F)c(C(=O)c2c[nH]c3ncc(Cl)cc23)c1F
Method in brief: as §1

barasertib = compound: CCN(CCCOc1ccc2c(Nc3cc(CC(=O)Nc4cccc(F)c4)[nH]n3)ncnc2c1)CCOP(=O)(O)O [barasertib]
Method in brief: as §1

[2] = compound: CC[C@@H]1C(=O)N(C)c2cnc(Nc3ccc(C(=O)NC4CCN(C)CC4)cc3OC)nc2N1C1CCCC1
Method in brief: as §1

volasertib = compound: CC[C@@H]1C(=O)N(C)c2cnc(Nc3ccc(C(=O)N[C@H]4CC[C@H](N5CCN(CC6CC6)CC5)CC4)cc3OC)nc2N1C(C)C [volasertib]
Method in brief: as §1

[3] = compound: CCn1c(C(=O)N(C2CC2)C2CC2)cc2c3c(ncn3C)c(Nc3cc(C)n(C)n3)nc21
Method in brief: as §1

[4] = compound: CCn1cc(-c2ccnc3[nH]c(-c4cccc(CN(C)C)c4)cc23)c(-c2ccc(NC(=O)N(C)C)cc2)n1
Method in brief: as §1

[5] = compound: CN1CCC(CNc2ccc3ncc(-c4cccc(OC(F)(F)F)c4)n3n2)CC1
Method in brief: as §1

saracatinib = compound: CN1CCN(CCOc2cc(OC3CCOCC3)c3c(Nc4c(Cl)ccc5c4OCO5)ncnc3c2)CC1 [saracatinib]
Method in brief: as §1

sotrastaurin = compound: CN1CCN(c2nc(C3=C(c4c[nH]c5ccccc45)C(=O)NC3=O)c3ccccc3n2)CC1 [sotrastaurin]
Method in brief: as §1

alvocidib = compound: CN1CC[C@H](c2c(O)cc(O)c3c(=O)cc(-c4ccccc4Cl)oc23)[C@H](O)C1 [alvocidib]
Method in brief: as §1

Tubastatin A = compound: CN1CCc2c(c3ccccc3n2Cc2ccc(C(=O)NO)cc2)C1 [Tubastatin A]
Method in brief: as §1

[6] = compound: CNC(=O)C1=CC=CC=C1NC2=NC(=NC=C2Cl)NC3=C(C=C(C=C3)N4CCOCC4)OC
Method in brief: as §1

defactinib = compound: CNC(=O)c1ccc(Nc2ncc(C(F)(F)F)c(NCc3nccnc3N(C)S(C)(=O)=O)n2)cc1 [defactinib]
Method in brief: as §1

[7] = compound: CNc1nc(-c2ccc3c(N)n[nH]c3c2)cc(N2C[C@@H](C(=O)NC3CCCCC3)CC[C@H]2C)n1
Method in brief: as §1

encorafenib = compound: COC(=O)N[C@@H](C)CNc1nccc(-c2cn(C(C)C)nc2-c2cc(Cl)cc(NS(C)(=O)=O)c2F)n1 [encorafenib]
Method in brief: as §1

[8] = compound: COC(=O)[C@H](CCSC)NC(=O)C1=C(C=C(C=C1)NC[C@H](CS)N)C2=CC=CC=C2
Method in brief: as §1

alisertib = compound: COc1cc(Nc2ncc3c(n2)-c2ccc(Cl)cc2C(c2c(F)cccc2OC)=NC3)ccc1C(=O)O [alisertib]
Method in brief: as §1

[9] = compound: COc1cc2nc(-c3cc(F)ccc3O)nc(N[C@@H]3CNC[C@H]3C(C)(C)O)c2cc1OC
Method in brief: as §1

gefitinib = compound: COc1cc2ncnc(Nc3ccc(F)c(Cl)c3)c2cc1OCCCN1CCOCC1 [gefitinib]
Method in brief: as §1

Measured: log2 fold change

CENPF (UniProt P49454)
inactive: vemurafenib 0 | [1] 0.02 | barasertib 0.003 | [2] 0.132 | volasertib 0.004 | [3] 0.02 | [4] 0.083 | [5] -0.041 | saracatinib 0.01 | sotrastaurin 0.003 | alvocidib 0 | Tubastatin A -0.042 | [6] 0.02 | defactinib 0.032 | [7] 0.004 | encorafenib 0.011 | [8] -0.061 | alisertib -0.006 | [9] 0.03 | gefitinib 0.046

CEP192 (UniProt Q8TEP8)
inactive: vemurafenib -0.003 | [1] 0.013 | barasertib 0.206 | [2] 0.049 | volasertib 0.05 | [3] 0.051 | [4] 0.499 | [5] -0.03 | saracatinib 0.002 | sotrastaurin -0.001 | alvocidib -0.081 | Tubastatin A -0.096 | [6] 0.195 | defactinib 0.017 | [7] 0.053 | encorafenib 0.07 | [8] -0.042 | alisertib 0.029 | [9] 0.021 | gefitinib -0.038

CEP41 (UniProt Q9BYV8)
inactive: vemurafenib -0.022 | [1] 0.108 | barasertib 0.03 | [2] 0.018 | volasertib -0.023 | [4] 0.02 | [5] -0.009 | saracatinib -0.032 | sotrastaurin 0.03 | alvocidib 0.042 | [6] 0.083 | defactinib 0.015 | [7] 0.073 | encorafenib 0.001 | [8] -0.139 | alisertib 0.029 | [9] -0.059 | gefitinib 0.011

2 entries picked at random from the list so far, as already listed:
CEP192 (UniProt Q8TEP8)
inactive: vemurafenib -0.003 | [1] 0.013 | barasertib 0.206 | [2] 0.049 | volasertib 0.05 | [3] 0.051 | [4] 0.499 | [5] -0.03 | saracatinib 0.002 | sotrastaurin -0.001 | alvocidib -0.081 | Tubastatin A -0.096 | [6] 0.195 | defactinib 0.017 | [7] 0.053 | encorafenib 0.07 | [8] -0.042 | alisertib 0.029 | [9] 0.021 | gefitinib -0.038

CENPF (UniProt P49454)
inactive: vemurafenib 0 | [1] 0.02 | barasertib 0.003 | [2] 0.132 | volasertib 0.004 | [3] 0.02 | [4] 0.083 | [5] -0.041 | saracatinib 0.01 | sotrastaurin 0.003 | alvocidib 0 | Tubastatin A -0.042 | [6] 0.02 | defactinib 0.032 | [7] 0.004 | encorafenib 0.011 | [8] -0.061 | alisertib -0.006 | [9] 0.03 | gefitinib 0.046

More records follow:

CDC25C (UniProt P30307)
inactive: vemurafenib 0.031 | [1] 0.093 | barasertib -0.028 | [2] -0.08 | volasertib -0.004 | [3] 0.083 | [4] 0.314 | [5] 0.155 | saracatinib -0.053 | sotrastaurin 0.016 | alvocidib 0.022 | Tubastatin A -0.09 | [6] 0.041 | defactinib 0.067 | [7] -0.073 | encorafenib 0.078 | [8] 0.14 | alisertib 0.054 | [9] 0.04 | gefitinib -0.069

CEP55 (UniProt Q53EZ4)
inactive: vemurafenib -0.023 | [1] -0.002 | barasertib -0.023 | [2] -0.001 | volasertib -0.008 | [3] -0.025 | [4] 0.03 | [5] -0.006 | saracatinib -0.007 | sotrastaurin 0.022 | alvocidib 0.019 | Tubastatin A 0.069 | [6] -0.008 | defactinib 0.066 | [7] 0.068 | encorafenib 0.028 | [8] 0.039 | alisertib -0.077 | [9] -0.075 | gefitinib 0.041

CERT isoform 3 (UniProt Q9Y5P4)
inactive: vemurafenib 0.001 | [1] 0.022 | barasertib 0.001 | [2] 0.007 | volasertib -0.003 | [3] 0.005 | [4] -0.013 | [5] 0.028 | saracatinib -0.023 | sotrastaurin 0.003 | alvocidib -0.026 | Tubastatin A -0.003 | [6] 0.005 | defactinib -0.004 | [7] 0 | encorafenib 0.02 | [8] -0.019 | alisertib -0.013 | [9] 0.008 | gefitinib 0.036

CDK16 isoform 2 (UniProt Q00536)
inactive: vemurafenib 0.03 | [1] 0.075 | barasertib 0.007 | [2] -0.006 | volasertib -0.175 | [3] -0.03 | [4] -0.027 | [5] 0.083 | saracatinib 0.03 | sotrastaurin 0.236 | Tubastatin A 0.029 | [6] 0.05 | defactinib 0.285 | [7] 0.106 | encorafenib 0.04 | [8] -0.024 | alisertib -0.014 | [9] 0.008 | gefitinib -0.026

CES2 isoform 4 (UniProt O00748)
inactive: vemurafenib 0.03 | [1] -0.024 | barasertib -0.052 | [2] -0.012 | volasertib 0.004 | [3] -0.046 | [4] 0.002 | [5] 0.034 | saracatinib -0.001 | sotrastaurin -0.017 | alvocidib 0.021 | Tubastatin A -0.065 | [6] 0.09 | defactinib -0.111 | [7] 0.219 | encorafenib 0.075 | [8] 0.01 | alisertib -0.084 | [9] -0.002 | gefitinib -0.061

CDC73 (UniProt Q6P1J9)
inactive: vemurafenib 0.064 | [1] -0.002 | barasertib 0.016 | [2] -0.027 | volasertib -0.028 | [3] 0.012 | [4] 0.056 | [5] -0.109 | saracatinib 0.014 | sotrastaurin 0.031 | alvocidib 0 | Tubastatin A -0.065 | [6] 0.004 | defactinib -0.011 | [7] -0.048 | encorafenib -0.002 | [8] 0.022 | alisertib 0.017 | [9] -0.02 | gefitinib -0.026

CDYL (UniProt Q9Y232)
inactive: vemurafenib -0.076 | [1] 0.013 | barasertib -0.03 | [2] 0.019 | volasertib 0.036 | [3] 0.051 | [4] -0.01 | [5] 0.038 | saracatinib -0.027 | sotrastaurin 0.013 | alvocidib -0.029 | Tubastatin A 0.033 | [6] -0.056 | defactinib 0.033 | [7] -0.05 | encorafenib 0.022 | [8] -0.132 | alisertib 0.05 | [9] -0.01 | gefitinib -0.079

CDV3 (UniProt Q9UKY7)
inactive: vemurafenib -0.047 | [1] -0.02 | barasertib -0.026 | [2] 0.023 | volasertib 0.031 | [3] -0.04 | [4] -0.006 | [5] 0.032 | saracatinib 0.012 | sotrastaurin 0.031 | alvocidib 0.004 | Tubastatin A 0.019 | [6] -0.003 | defactinib 0.028 | [7] 0.026 | encorafenib -0.022 | [8] -0.008 | alisertib -0.013 | [9] 0.037 | gefitinib 0.018

CDK12 (UniProt Q9NYV4)
inactive: vemurafenib -0.045 | [1] -0.011 | barasertib 0.024 | [2] 0.002 | volasertib 0.031 | [3] 0.037 | [4] -0.101 | [5] -0.001 | saracatinib 0.038 | sotrastaurin -0.018 | alvocidib 0.059 | Tubastatin A 0.008 | [6] -0.038 | defactinib 0.102 | [7] 0.079 | encorafenib 0.039 | [8] 0.007 | alisertib 0.009 | [9] -0.024 | gefitinib 0.035

CDC45 isoform 3 (UniProt O75419)
inactive: vemurafenib 0.009 | [1] 0.042 | barasertib -0.015 | [2] -0.05 | volasertib -0.017 | [3] -0.05 | [4] -0.096 | [5] -0.04 | saracatinib 0.007 | sotrastaurin 0.027 | alvocidib 0.031 | Tubastatin A -0.138 | [6] 0.031 | defactinib 0.028 | [7] -0.017 | encorafenib 0.001 | [8] 0.019 | alisertib 0.023 | [9] 0.009 | gefitinib -0.034

CFAP20 (UniProt Q9Y6A4)
inactive: vemurafenib 0.021 | [1] 0.016 | barasertib 0.001 | [2] 0.053 | volasertib 0.013 | [3] -0.012 | [4] -0.258 | [5] 0.119 | saracatinib 0.005 | sotrastaurin 0.009 | alvocidib -0.123 | Tubastatin A -0.012 | [6] 0.009 | defactinib -0.015 | [7] 0.051 | encorafenib 0.064 | [8] -0.016 | alisertib -0.01 | [9] -0.004 | gefitinib 0.012

CDC123 (UniProt O75794)
inactive: vemurafenib -0.052 | [1] 0.014 | barasertib 0.04 | [2] -0.12 | volasertib -0.05 | [3] 0.032 | [4] 0.018 | [5] -0.021 | saracatinib 0.012 | sotrastaurin 0.013 | alvocidib 0.019 | Tubastatin A -0.125 | [6] 0.009 | defactinib 0.007 | [7] -0.03 | encorafenib 0.018 | [8] 0.136 | alisertib -0.004 | [9] -0.023 | gefitinib -0.001

CDKN1B (UniProt P46527)
inactive: vemurafenib -0.12 | [1] 0.004 | barasertib -0.032 | [2] 0.063 | volasertib -0.039 | [3] 0.099 | [4] 0.118 | [5] -0.119 | saracatinib -0.012 | sotrastaurin 0.015 | alvocidib 0.057 | Tubastatin A 0.048 | [6] 0.035 | defactinib 0.067 | [7] -0.045 | encorafenib 0.03 | [8] -0.043 | [9] 0.023
